This passage reports survivor count and T/C results from PubChem BioAssay AID248 (DTP/NCI, 2004).

The list is a part of this screen's results and no random one: it is rich in T/C values a quarter to a half above the control, in often repeated tests (any T/C) and in doses without a T/C. Further doses and runs are listed elsewhere. T/C gives the treated animals as a percentage of the vehicle group. Some doses have a count of surviving animals in place of a T/C: the source files T/C as zero there, which appears to mark a toxic dose or a test without result, not a measured value. Some doses without a T/C left all or most animals alive at the check, yet need not have been tolerated: survival well below the control is almost never listed, so the zero probably covers shortened survival too. Counts of survivors are from the toxicity check (mostly the fifth day) where no day follows; animals may have died later. Schedules are NCI's codes, read here as Q, the interval in days (D) or hours (H), X, the number of doses. Where survival is the endpoint, the PubChem record calls one and a half times the control and up active, and a quarter to a half above the control has no call in these data; cut-offs in other NCI protocols can differ.

This experiment concerns L1210 leukemia ip in BDF1 mice, survival T/C. Description: NCI In Vivo Anticancer Drug Screen. Data for tumor model L1210 Leukemia (intraperitoneal) in B6D2F1 (BDF1) mice. Conditions: T/C endpoint: mean survival time, higher T/C = longer survival.
Where [1] appears, read: dose: 100.0 mg/kg/injection, schedule: Q04DX003 (ip), vehicle: saline with Tween-80.
Where [2] appears, read: dose: 200.0 mg/kg/injection, schedule: Q04DX003 (ip), vehicle: saline with Tween-80.
Setting [3] is: dose: 400.0 mg/kg/injection, schedule: Q04DX003 (ip), vehicle: saline with Tween-80.
The mark [4] stands for this setting: dose: 400.0 mg/kg/injection, schedule: Q04DX003 (ip), vehicle: Klucel (hydroxypropylcellulose) (HPC).
[5] abbreviates: dose: 400.0 mg/kg/injection, schedule: Q04DX003 (ip), vehicle: saline.
The mark [6] stands for this setting: dose: 200.0 mg/kg/injection, schedule: Q01DX009 (ip), vehicle: saline with Tween-80.
Where [7] appears, read: dose: 400.0 mg/kg/injection, schedule: Q01DX001 (ip), vehicle: carboxymethylcellulose (CMC).
[8] abbreviates: dose: 400.0 mg/kg/injection, schedule: Q04DX003 (ip), vehicle: acetone.
Where [9] appears, read: dose: 100.0 mg/kg/injection, schedule: Q04DX003 (ip), vehicle: saline.
The mark [10] stands for this setting: dose: 400.0 mg/kg/injection, schedule: Q01DX001 (ip), vehicle: saline.

Regarding `CCSN1C(=O)c2ccccc2C1=O`, the survivor count runs as follows: (dose: 200.0 mg/kg/injection, schedule: Q04DX002 (ip), vehicle: Klucel (hydroxypropylcellulose) (HPC)) 0 of 3; (dose: 400.0 mg/kg/injection, schedule: Q04DX002 (ip), vehicle: Klucel (hydroxypropylcellulose) (HPC)) 0 of 3.

In the case of `CCC1=[N+](C)C(C)(C)CC(C)O1` (stereo not drawn), the survivor count is, setting by setting: under setting [1], 3 of 6; under setting [2], 1 of 6; under setting [3], 0 of 6.

In the case of `CCN(CC)CCCCCOC(=O)c1ccccc1`, the T/C (dose: 100.0 mg/kg/injection, schedule: Q01DX009 (ip), vehicle: Klucel (hydroxypropylcellulose) (HPC)) was 127 % of control. Besides, the survivor count under setting [4] is recorded as 0 of 6.

Take `Cc1ccc(C(=O)O)cc1-n1c(-c2ccc(Cl)cc2)nnc1-c1ccc(Br)cc1`: the survivor count (dose: 400.0 mg/kg/injection, schedule: Q01DX001 (ip), vehicle: Klucel (hydroxypropylcellulose) (HPC)) is reported as 1 of 6.

`O=C(O)c1c(Cl)c(Cl)c(Cl)c(Cl)c1-c1c2ccc(=O)c(O)c-2oc2c(O)c(O)ccc12`: the survivor count under setting [5] is listed as 2 of 6.

For `Cc1ccc(/C=C(\C#N)C(=O)O)cc1`, the survivor count runs as follows: (dose: 100.0 mg/kg/injection, schedule: Q01DX009 (ip), vehicle: saline with Tween-80) 1 of 3; under setting [6], 1 of 3.

With `CC(C)(C)C(=O)CS(=O)(=O)C(Br)C(=O)C(C)(C)C` (stereo not drawn), the survivor count (dose: 200.0 mg/kg/injection, schedule: Q04DX003 (ip), vehicle: Klucel (hydroxypropylcellulose) (HPC)) was 3 of 6 and the survivor count under setting [4] is reported as 3 of 6.

As to `Nc1nc(=S)c2ncn(C3OC(CO)CC3O)c2[nH]1` (stereo not drawn), the T/C runs as follows: (dose: 5.0 mg/kg/injection, schedule: Q01DX009 (ip), vehicle: carboxymethylcellulose (CMC)) 130 % of control; (dose: 5.0 mg/kg/injection, schedule: Q01DX009 (ip), vehicle: other) 142 % of control; (dose: 10.0 mg/kg/injection, schedule: Q01DX009 (ip), vehicle: carboxymethylcellulose (CMC)) 136 % of control; (dose: 20.0 mg/kg/injection, schedule: Q01DX009 (ip), vehicle: carboxymethylcellulose (CMC)) 145 % of control; (dose: 20.0 mg/kg/injection, schedule: Q01DX009 (ip), vehicle: other) 137 % of control; (dose: 40.0 mg/kg/injection, schedule: Q01DX009 (ip), vehicle: carboxymethylcellulose (CMC)) 145 % of control. The T/C is 137 % of control (dose: 40.0 mg/kg/injection, schedule: Q01DX009 (ip), vehicle: other); 148 % of control (dose: 50.0 mg/kg/injection, schedule: Q01DX001 (ip), vehicle: carboxymethylcellulose (CMC)); 130 % of control (dose: 80.0 mg/kg/injection, schedule: Q01DX009 (ip), vehicle: carboxymethylcellulose (CMC)); 146 % of control (dose: 100.0 mg/kg/injection, schedule: Q01DX001 (ip), vehicle: carboxymethylcellulose (CMC)); 137 % of control (dose: 133.0 mg/kg/injection, schedule: Q01DX001 (ip), vehicle: carboxymethylcellulose (CMC)); 140 % of control (dose: 200.0 mg/kg/injection, schedule: Q01DX001 (ip), vehicle: carboxymethylcellulose (CMC)). For the same molecule, under “dose: 300.0 mg/kg/injection, schedule: Q01DX001 (ip), vehicle: carboxymethylcellulose (CMC)”, the T/C was 146 % of control. The survivor count under setting [7] is reported as 4 of 4.

Regarding `C=C(C)C1CCC2=CCCC(C)C2(C)C1` (stereo not drawn), under setting [8], the survivor count is 5 of 6.

For `Cc1ccc(S(=O)(=O)N(N)C(=O)c2ccccc2)cc1`, the survivor count is on record as 6 of 6 (dose: 75.0 mg/kg/injection, schedule: Q01DX001 (ip), vehicle: saline); 6 of 6 (dose: 150.0 mg/kg/injection, schedule: Q01DX001 (ip), vehicle: saline); 6 of 6 (dose: 300.0 mg/kg/injection, schedule: Q01DX001 (ip), vehicle: saline).

For the molecule `CCCCSP(=O)(SCCCC)N1CCCCC1`, the survivor count is reported as 2 of 3 (dose: 100.0 mg/kg/injection, schedule: Q04DX002 (ip), vehicle: saline with Tween-80); 2 of 3 (dose: 200.0 mg/kg/injection, schedule: Q04DX002 (ip), vehicle: saline with Tween-80); 0 of 3 (dose: 400.0 mg/kg/injection, schedule: Q04DX002 (ip), vehicle: saline with Tween-80).

`O=C(OCC1CCN2CCCC12)c1ccccc1` (stereo not drawn): the survivor count is, setting by setting: under setting [9], 3 of 6; (dose: 200.0 mg/kg/injection, schedule: Q04DX003 (ip), vehicle: saline) 1 of 6; under setting [5], 0 of 6.

In the case of `CSc1nc(NN(C)C)c2[nH]c(C)nc2n1`, the survivor count under setting [10] is listed as 3 of 6.

Regarding `OCCNCCN1CCN(CCCN2c3ccccc3Sc3ccc(C(F)(F)F)cc32)CC1`, the survivor count (dose: 35.0 mg/kg/injection, schedule: Q01DX009 (ip), vehicle: saline) is reported as 0 of 6; the survivor count (dose: 50.0 mg/kg/injection, schedule: Q04DX003 (ip), vehicle: saline) was 1 of 6; the survivor count (dose: 55.0 mg/kg/injection, schedule: Q01DX009 (ip), vehicle: saline) is 0 of 6; the survivor count (dose: 80.0 mg/kg/injection, schedule: Q01DX009 (ip), vehicle: saline) was 0 of 6; the survivor count under setting [9] is 1 of 6.

Regarding `CC(=O)OC1CCC(C)(C2CCC3(C)C(C(C)CCCC(C)C)CCC3C2CC(=O)O)C(=O)C1` (stereo not drawn), the survivor count (dose: 400.0 mg/kg/injection, schedule: Q01DX009 (ip), vehicle: saline with Tween-80) is listed as 6 of 6.

Consider `COc1c2c(c3c(c1O)c(=O)c1ccccc1n3C)OCO2`, for which the survivor count under setting [7] is reported as 4 of 4.

In the case of `CC1=C2CC(C(C)(C)O)CCC2(C)CC/C1=N\NC(N)=S` (stereo not drawn), the survivor count under setting [6] is 6 of 6.

For `Cc1c2c(cc3c1OCN(C)C3)CN(C)CO2`, the survivor count under setting [10] is given as 1 of 4.

Regarding `C[N+]1(C)C2CC(OC(=O)C(CO)c3ccccc3)CC1C1OC12` (stereo not drawn), the survivor count by setting is: (dose: 150.0 mg/kg/injection, schedule: Q01DX001 (ip), vehicle: other) 3 of 6; (dose: 300.0 mg/kg/injection, schedule: Q01DX001 (ip), vehicle: other) 0 of 6.

`O=C1C=Cc2ccc3c4c(ccc1c24)C=CC3=O`: under setting [8], the survivor count was 4 of 6.

`Cc1cccc(C(=O)C=C(C(F)(F)F)C(F)(F)F)c1`: the survivor count reads like this: under setting [1], 6 of 6; under setting [2], 5 of 6; under setting [3], 0 of 6.
